From PubChem BioAssay AID330 (DTP/NCI, 2004)
The list shows only some results of the screen, not a fair sample: it gathers some chemical classes. Other doses and runs of a compound may be missing. T/C gives the treated animals as a percentage of the vehicle group. Some entries give survivors of the animals treated and no T/C: the source holds a T/C of zero for them, seemingly a mark for toxic or unscored doses. Some doses without a T/C left all or most animals alive at the check, yet need not have been tolerated: the source hardly ever lists a survival T/C far under the control, and the zero likely stands for such cases as well. Survivors were counted at the toxicity check, usually on the fifth day, unless a day is given; later deaths do not show. Schedules are NCI's codes, taken here to give the interval after Q, in days (D) or hours (H), and the number of doses after X. For survival time, the PubChem record calls one and a half times the control and up active, and a quarter to a half above the control has no call in these data; cut-offs in other NCI protocols can differ. Some entries show no survivor count and are marked so; the dose need not have been tolerated. Some entries hold several experiments; the results are listed from low to high. Some T/C values are followed by the survivors on the day toxicity was checked, most often the fifth; where neither a count nor a note follows, no animal had died by that day.

System: P388 leukemia ip, CD2F1 mice, survival T/C
Test: NCI In Vivo Anticancer Drug Screen. Data for tumor model P388 Leukemia (intraperitoneal) in CD2F1 (CDF1) mice
Settings: T/C endpoint: median survival time, higher T/C = longer survival
[1] = dose: 50.0 mg/kg/injection, schedule: Q04DX003 (ip), vehicle: saline with Tween-80
[2] = dose: 100.0 mg/kg/injection, schedule: Q04DX003 (ip), vehicle: saline with Tween-80
[3] = dose: 200.0 mg/kg/injection, schedule: Q04DX003 (ip), vehicle: saline with Tween-80
[4] = dose: 400.0 mg/kg/injection, schedule: Q04DX003 (ip), vehicle: saline with Tween-80

SMILES: NC(CC(=O)O)c1cccc(N(CCCl)CCCl)c1 (configuration not stated)
- T/C (dose: 0.2 mg/kg/injection, schedule: Q04DX003 (ip), vehicle: saline with Tween-80): 118 % of control
- T/C (dose: 0.4 mg/kg/injection, schedule: Q04DX003 (ip), vehicle: saline with Tween-80): 118 % of control
- T/C (dose: 0.75 mg/kg/injection, schedule: Q04DX003 (ip), vehicle: saline with Tween-80): 136 % of control
- T/C (dose: 0.8 mg/kg/injection, schedule: Q04DX003 (ip), vehicle: saline with Tween-80): 131 % of control
- T/C (dose: 1.5 mg/kg/injection, schedule: Q04DX003 (ip), vehicle: saline with Tween-80): 140 % of control
- T/C (dose: 3.0 mg/kg/injection, schedule: Q04DX003 (ip), vehicle: saline with Tween-80): 150 % of control
- T/C (dose: 3.13 mg/kg/injection, schedule: Q04DX003 (ip), vehicle: saline with Tween-80): 141 % of control
- T/C (dose: 6.25 mg/kg/injection, schedule: Q04DX003 (ip), vehicle: saline with Tween-80): 170 % of control
- T/C (dose: 12.5 mg/kg/injection, schedule: Q04DX003 (ip), vehicle: saline with Tween-80): 208 % of control
- T/C (dose: 25.0 mg/kg/injection, schedule: Q01DX009 (ip), vehicle: saline): 150 % of control
- T/C (dose: 37.5 mg/kg/injection, schedule: Q04DX003 (ip), vehicle: saline with Tween-80): 245 % of control
- T/C (dose: 50.0 mg/kg/injection, schedule: Q01DX009 (ip), vehicle: saline): 163 % of control
- T/C [1]: 272 % of control
- T/C (dose: 75.0 mg/kg/injection, schedule: Q04DX003 (ip), vehicle: saline with Tween-80): 272 % of control [5 of 6 alive]
- T/C (dose: 100.0 mg/kg/injection, schedule: Q01DX009 (ip), vehicle: saline): 209 % of control
- T/C [2]: 113 % of control [5 of 6 alive]
- survivor count [3]: 0 of 6
- survivor count [4]: 0 of 6

SMILES: CCOP(=O)(O)CC.[Eu]
- T/C (dose: 100.0 mg/kg/injection, schedule: Q04DX002 (ip), vehicle: saline with Tween-80): 92 % of control [survivor count not shown]
- T/C (dose: 200.0 mg/kg/injection, schedule: Q04DX002 (ip), vehicle: saline with Tween-80): 94 % of control [survivor count not shown]

SMILES: CC(C)(C)CNCCCl
- T/C (dose: 50.0 mg/kg/injection, schedule: Q01DX005 (ip), vehicle: saline): 98 % of control
- T/C (dose: 100.0 mg/kg/injection, schedule: Q01DX005 (ip), vehicle: saline): 98 % of control
- survivor count (dose: 200.0 mg/kg/injection, schedule: Q01DX005 (ip), vehicle: saline): 0 of 6

SMILES: C1CN1.O=C(O)CCSCNc1ncnc2c1ncn2C1OC2COP(=O)(O)OC2C1O (configuration not stated)
- T/C (dose: 5.0 mg/kg/injection, schedule: Q04DX002 (ip), vehicle: saline): 118 % of control
- T/C (dose: 10.0 mg/kg/injection, schedule: Q04DX002 (ip), vehicle: saline): 112 % of control [5 of 6 alive]
- T/C (dose: 20.0 mg/kg/injection, schedule: Q04DX002 (ip), vehicle: saline): 112 % of control
- survivor count (dose: 100.0 mg/kg/injection, schedule: Q04DX002 (ip), vehicle: saline): 0 of 6
- survivor count (dose: 200.0 mg/kg/injection, schedule: Q04DX002 (ip), vehicle: saline): 1 of 6
- survivor count (dose: 400.0 mg/kg/injection, schedule: Q04DX002 (ip), vehicle: saline): 0 of 6

SMILES: CC1COP(N(C)C)O1 (configuration not stated)
- T/C [1]: 110 % of control
- T/C [2]: 110 % of control
- T/C [3]: 100 % of control
- T/C [4]: 100 % of control

SMILES: NNC(NN)NN.n1nc(-c2nn[nH]n2)n[nH]1
- T/C (dose: 50.0 mg/kg/injection, schedule: Q01DX009 (ip), vehicle: Klucel (hydroxypropylcellulose) (HPC)): 95 % of control [survivor count not shown]
- T/C (dose: 100.0 mg/kg/injection, schedule: Q01DX009 (ip), vehicle: Klucel (hydroxypropylcellulose) (HPC)): 89 % of control [survivor count not shown]
- T/C (dose: 200.0 mg/kg/injection, schedule: Q01DX009 (ip), vehicle: Klucel (hydroxypropylcellulose) (HPC)): 91 % of control [survivor count not shown]

SMILES: CCOP(=O)(O)CC.[Th]
- T/C (dose: 50.0 mg/kg/injection, schedule: Q01DX009 (ip), vehicle: saline with Tween-80): 100 % of control [survivor count not shown]
- T/C (dose: 100.0 mg/kg/injection, schedule: Q01DX009 (ip), vehicle: saline with Tween-80): 105 % of control [survivor count not shown]
- T/C (dose: 200.0 mg/kg/injection, schedule: Q01DX009 (ip), vehicle: saline with Tween-80): 107 % of control [survivor count not shown]

SMILES: CC(C)OP(C)(=O)O.[Cr]
- T/C (dose: 100.0 mg/kg/injection, schedule: Q04DX003 (ip), vehicle: Klucel (hydroxypropylcellulose) (HPC)): 97 % of control [survivor count not shown]
- T/C (dose: 200.0 mg/kg/injection, schedule: Q04DX003 (ip), vehicle: Klucel (hydroxypropylcellulose) (HPC)): 100 % of control [survivor count not shown]
- T/C (dose: 400.0 mg/kg/injection, schedule: Q04DX003 (ip), vehicle: Klucel (hydroxypropylcellulose) (HPC)): 94 % of control [survivor count not shown]

SMILES: C/C(=C/C(=O)O)[As]12(OC(C)(C3CCC4CCCC43)O1)OC(C)(C13CCCC1CCC3)O2 (configuration not stated)
- T/C (dose: 7.5 mg/kg/injection, schedule: Q01DX009 (ip), vehicle: saline with Tween-80): 99 % of control
- T/C (dose: 15.0 mg/kg/injection, schedule: Q01DX009 (ip), vehicle: saline with Tween-80): 98 % of control
- T/C (dose: 30.0 mg/kg/injection, schedule: Q01DX009 (ip), vehicle: saline with Tween-80): 98 % of control

SMILES: COP(C)(=O)O.[V]
- T/C (dose: 50.0 mg/kg/injection, schedule: Q01DX001 (ip), vehicle: saline with Tween-80): 101 % of control [survivor count not shown]
- T/C (dose: 100.0 mg/kg/injection, schedule: Q01DX001 (ip), vehicle: saline with Tween-80): 93 [survivor count not shown] and 105 % of control [survivor count not shown]

SMILES: O=C(Nc1ccc([N+](=O)[O-])cc1)c1cc([N+](=O)[O-])cc([N+](=O)[O-])c1Cl
- T/C (dose: 50.0 mg/kg/injection, schedule: Q01DX005 (ip), vehicle: saline with Tween-80): 90 % of control
- T/C (dose: 100.0 mg/kg/injection, schedule: Q01DX005 (ip), vehicle: saline with Tween-80): 95 % of control
- T/C (dose: 200.0 mg/kg/injection, schedule: Q01DX005 (ip), vehicle: saline with Tween-80): 91 % of control

SMILES: CCN(CCCl)CC1OC(OC)C2OC(C)(C)OC12 (configuration not stated)
- T/C (dose: 3.13 mg/kg/injection, schedule: Q01DX009 (ip), vehicle: saline + alcohol): 169 % of control
- T/C (dose: 4.3 mg/kg/injection, schedule: Q01DX009 (ip), vehicle: saline): 154 % of control
- T/C (dose: 6.25 mg/kg/injection, schedule: Q01DX009 (ip), vehicle: saline + alcohol): 169 % of control
- T/C (dose: 7.2 mg/kg/injection, schedule: Q01DX009 (ip), vehicle: saline): 154 % of control
- T/C (dose: 12.0 mg/kg/injection, schedule: Q01DX009 (ip), vehicle: saline): 168 % of control
- T/C (dose: 12.5 mg/kg/injection, schedule: Q01DX009 (ip), vehicle: saline + alcohol): 183 % of control
- survivor count (dose: 20.0 mg/kg/injection, schedule: Q01DX009 (ip), vehicle: saline): 10 of 10
- survivor count (dose: 25.0 mg/kg/injection, schedule: Q01DX009 (ip), vehicle: saline + alcohol): 6 of 6
- T/C (dose: 63.0 micrograms/kg/injection, schedule: Q01DX009 (ip), vehicle: saline): 109 % of control
- T/C (dose: 125.0 micrograms/kg/injection, schedule: Q01DX009 (ip), vehicle: saline): 126 % of control
- T/C (dose: 250.0 micrograms/kg/injection, schedule: Q01DX009 (ip), vehicle: saline): 135 % of control
- T/C (dose: 500.0 micrograms/kg/injection, schedule: Q01DX009 (ip), vehicle: saline): 157 % of control
